Data taken from paper PMC7967059.
No constants are given. Whether binding was seen depends on the method and setting. In cells and extracts the contact can be indirect. Some entries that bind do so weakly or less than the wild type. For part of these data: Sequences can lack the tags named with a protein.

Sequences of proteins named here, by UniProt entry; tags and fusion partners are left off.
UniProt P16045: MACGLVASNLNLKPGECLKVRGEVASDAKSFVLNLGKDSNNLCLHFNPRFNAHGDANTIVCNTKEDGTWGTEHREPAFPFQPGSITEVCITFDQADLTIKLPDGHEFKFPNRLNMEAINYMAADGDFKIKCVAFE

Tests used:
[1] = target: T1, CD146, endogenous in mouse adipose tissue (mouse (endogenous in WAT and BAT)) (UniProt Q8R2Y2); assay: co-IP; mouse BAT (Figure S12E); conditions for BAT not told
T1 sequence: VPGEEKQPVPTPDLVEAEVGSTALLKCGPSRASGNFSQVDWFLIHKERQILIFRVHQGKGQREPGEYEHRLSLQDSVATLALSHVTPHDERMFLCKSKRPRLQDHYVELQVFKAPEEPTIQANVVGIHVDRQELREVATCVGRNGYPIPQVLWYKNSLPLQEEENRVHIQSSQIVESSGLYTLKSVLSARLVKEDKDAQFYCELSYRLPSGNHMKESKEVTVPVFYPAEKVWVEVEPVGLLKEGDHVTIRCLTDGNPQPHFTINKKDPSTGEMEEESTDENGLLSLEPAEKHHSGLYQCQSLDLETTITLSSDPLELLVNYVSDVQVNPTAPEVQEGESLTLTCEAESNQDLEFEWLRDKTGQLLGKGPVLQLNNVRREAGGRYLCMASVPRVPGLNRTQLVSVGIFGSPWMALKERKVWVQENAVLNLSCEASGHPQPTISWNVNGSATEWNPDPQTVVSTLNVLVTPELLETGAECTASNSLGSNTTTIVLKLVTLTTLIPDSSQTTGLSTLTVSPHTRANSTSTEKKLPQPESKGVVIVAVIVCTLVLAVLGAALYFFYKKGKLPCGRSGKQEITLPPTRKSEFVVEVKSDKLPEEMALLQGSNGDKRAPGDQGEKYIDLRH

[2] = target: T1, CD146, endogenous in mouse adipose tissue (mouse (endogenous in WAT and BAT)); assay: co-IP; epididymal adipose tissue (WAT) of mice fed ND or HFD (lean and obese), RIPA lysate; specific antibodies and protein G PLUS‐agarose overnight at 4 °C; wash with 1 M NaCl, 1% NP‐40; western blot
[3] = target: T2, full‐length CD146 fused with Flag‐tag (UniProt P43121); assay: co-IP; HEK293 cells cotransfected with ANGPTL2 and full‐length or truncated Flag‐CD146; RIPA lysate; anti‐FLAG M2 agarose beads overnight at 4 °C; western blot
T2 sequence: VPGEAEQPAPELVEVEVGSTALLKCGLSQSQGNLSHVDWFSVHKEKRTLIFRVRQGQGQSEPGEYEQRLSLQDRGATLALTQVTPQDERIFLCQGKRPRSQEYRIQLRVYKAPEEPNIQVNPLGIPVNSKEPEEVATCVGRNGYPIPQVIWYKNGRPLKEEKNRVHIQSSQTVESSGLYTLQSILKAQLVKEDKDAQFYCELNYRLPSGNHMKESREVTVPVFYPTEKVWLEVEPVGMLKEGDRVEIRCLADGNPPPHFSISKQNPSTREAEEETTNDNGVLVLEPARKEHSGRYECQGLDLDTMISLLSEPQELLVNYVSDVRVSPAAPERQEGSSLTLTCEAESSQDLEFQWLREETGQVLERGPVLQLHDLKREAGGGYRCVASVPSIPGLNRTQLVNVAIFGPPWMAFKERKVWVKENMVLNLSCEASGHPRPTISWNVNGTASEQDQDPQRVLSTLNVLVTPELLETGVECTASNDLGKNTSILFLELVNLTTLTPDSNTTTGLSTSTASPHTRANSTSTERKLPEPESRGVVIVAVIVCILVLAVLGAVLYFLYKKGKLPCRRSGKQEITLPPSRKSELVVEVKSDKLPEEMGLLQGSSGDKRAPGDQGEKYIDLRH

Molecule: galectin‐1, endogenous in mouse BAT (from UniProt P16045 1-135) (ligand)
- binding [1]: binds

B1: ANGPTL2, endogenous in mouse WAT (ligand, UniProt Q9R045 20-493)
chain: ATGPEADVEGTEDGSQREYIYLNRYKRAGESPDKCTYTFIVPQQRVTGAICVNSKEPEVHLENRVHKQELELLNNELLKQKRQIETLQQLVEVDGGIVSEVKLLRKESRNMNSRVTQLYMQLLHEIIRKRDNALELSQLENRILNQTADMLQLASKYKDLEHKFQHLAMLAHNQSEVIAQLEEHCQRVPAARPMPQPPPAAPPRVYQPPTYNRIINQISTNEIQSDQNLKVLPPSLPTMPALTSLPSSTDKPSGPWRDCLQALEDGHSTSSIYLVKPENTNRLMQVWCDQRHDPGGWTVIQRRLDGSVNFFRNWETYKQGFGNIDGEYWLGLENIYWLTNQGNYKLLVTMEDWSGRKVFAEYASFRLEPESEYYKLRLGRYHGNAGDSFTWHNGKQFTTLDRDHDVYTGNCAHYQKGGWWYNACAHSNLNGVWYRGGHYRSRYQDGVYWAEFRGGSYSLKKVVMMIRPNPNTFH
- binding [2]: binds

B2: ANGPTL2 coexpressed in 293 cells (ligand, UniProt Q9UKU9 23-493)
chain: QEDGFEGTEEGSPREFIYLNRYKRAGESQDKCTYTFIVPQQRVTGAICVNSKEPEVLLENRVHKQELELLNNELLKQKRQIETLQQLVEVDGGIVSEVKLLRKESRNMNSRVTQLYMQLLHEIIRKRDNALELSQLENRILNQTADMLQLASKYKDLEHKYQHLATLAHNQSEIIAQLEEHCQRVPSARPVPQPPPAAPPRVYQPPTYNRIINQISTNEIQSDQNLKVLPPPLPTMPTLTSLPSSTDKPSGPWRDCLQALEDGHDTSSIYLVKPENTNRLMQVWCDQRHDPGGWTVIQRRLDGSVNFFRNWETYKQGFGNIDGEYWLGLENIYWLTNQGNYKLLVTMEDWSGRKVFAEYASFRLEPESEYYKLRLGRYHGNAGDSFTWHNGKQFTTLDRDHDVYTGNCAHYQKGGWWYNACAHSNLNGVWYRGGHYRSRYQDGVYWAEFRGGSYSLKKVVMMIRPNPNTFH
- binding [3]: binds
